According to PMC12796736:
No constants are given. Whether binding was seen depends on the method and setting. Some entries that bind do so weakly or less than the wild type. Where a sequence is shown, tags or fusion partners need not be part of it.

By UniProt entry, the sequences of proteins in these tests, tags left out.
UniProt P09471: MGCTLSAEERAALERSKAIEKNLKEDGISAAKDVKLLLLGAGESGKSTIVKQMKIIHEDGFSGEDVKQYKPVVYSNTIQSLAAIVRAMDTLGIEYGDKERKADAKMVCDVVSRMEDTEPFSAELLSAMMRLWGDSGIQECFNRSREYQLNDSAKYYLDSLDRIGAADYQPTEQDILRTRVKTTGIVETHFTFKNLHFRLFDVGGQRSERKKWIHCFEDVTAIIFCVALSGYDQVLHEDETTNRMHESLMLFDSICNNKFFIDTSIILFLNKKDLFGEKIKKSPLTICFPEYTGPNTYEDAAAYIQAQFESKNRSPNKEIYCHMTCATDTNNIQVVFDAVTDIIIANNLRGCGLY

Assays:
[1] = target: T1, MBP-(RASA3 C-terminal region)-His6 fusion protein (human) (UniProt Q14644); assay: condition: only without added Ca^2+ (G⍺o-GDP, 1 μM); pull-down; MBP-(RASA3 C-terminal region)-His6 (1 μM) prebound to Ni-NTA resin; G⍺o (1 μM) prebound to GDP; no Ca^2+; same buffer as a5; Coomassie and densitometry, MBP-His6 as background control; both purified
T1 sequence: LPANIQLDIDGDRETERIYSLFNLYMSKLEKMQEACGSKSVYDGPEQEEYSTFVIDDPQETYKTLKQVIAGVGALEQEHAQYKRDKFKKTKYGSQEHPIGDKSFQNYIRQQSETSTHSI

[2] = target: T1, MBP-(RASA3 C-terminal region)-His6 fusion protein (human); assay: pull-down; as a9, but G⍺o prebound to GTPγS; with 2 mM CaCl2; both purified
[3] = target: T1, MBP-(RASA3 C-terminal region)-His6 fusion protein (human); assay: condition: only without added Ca^2+ (G⍺o-GTPγS, 1 μM); pull-down; as a9, but G⍺o prebound to GTPγS; no Ca^2+; both purified

binding [1]: no binding
binding [2]: binds weakly
binding [3]: no binding
Substance: recombinant human G⍺o (from UniProt P09471 1-354)
